Some of the results follow. These are further read-outs of the screen, such as a control signal, another cell line or another target. No call is given for them. Compounds called inactive in the main read-out are mostly missing here.

Sequences of proteins named here, by UniProt entry; tags and fusion partners are left off.
UniProt P21453, whole entry, looked up: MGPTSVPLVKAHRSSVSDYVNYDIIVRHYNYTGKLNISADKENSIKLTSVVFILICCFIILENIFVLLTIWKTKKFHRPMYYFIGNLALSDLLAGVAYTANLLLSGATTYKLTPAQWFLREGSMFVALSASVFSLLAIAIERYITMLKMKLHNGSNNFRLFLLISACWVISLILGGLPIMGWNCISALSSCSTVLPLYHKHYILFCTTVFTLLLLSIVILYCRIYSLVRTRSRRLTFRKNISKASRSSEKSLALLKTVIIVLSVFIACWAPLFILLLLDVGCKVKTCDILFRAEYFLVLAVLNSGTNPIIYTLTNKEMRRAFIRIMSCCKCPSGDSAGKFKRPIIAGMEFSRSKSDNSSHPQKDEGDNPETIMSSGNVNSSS

This test concerns the target Sphingosine 1-phosphate receptor 1 (Homo sapiens) (UniProt P21453). Nature of the test: S1P1 agonists and agonism potentiators, primary screen, cell-based, primary and confirmation screens, CRE-bla reporter (AID 449).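 Also: forskolin at 4 µM as EC80 and the EC20 agonist is SEW2871; 100% = SEW2871 at its EC100 plus forskolin at EC80.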 Conditions: S1P1 CRE-bla cells, forskolin, beta-lactamase FRET, potentiator mode; measured here: confirmation screen, triplicate average; at 9.5 µM; stronger effect = higher value; 100% = saturating reference agonist, 0% = basal; S1P1 agonist co-added at EC20, 2 nM.
Take `COc1ccc(-c2nc(-c3ccc(Br)o3)no2)cc1OC`: the activation was 87.7%. The figure for `Cc1nnc(SCC(=O)N2CCC(c3noc4ccc(F)cc34)CC2)s1` is 70.4%; for `Clc1ccc(OCc2nc(-c3ccncc3)no2)c(Br)c1` it is 81.7%; for `FC(F)(F)c1ccc(N2CCN(c3cc(-c4ccccc4)nc4ncnn34)CC2)nc1` it is 118%. Turning to `Cn1nc(CC(=O)Nc2ccc(N3CCN(C(=O)OC(C)(C)C)CC3)cc2)c2ccccc2c1=O`, the activation came to 55.4%. Turning to `COc1ccc(N=c2scc(-c3ccc(S(=O)(=O)N4CCOCC4)cc3)n2CCCO)cc1`, the activation was determined as 63.7%. As to `CCOc1ccc(-c2noc(-c3ccncc3)n2)cc1OCC`, the activation was 102%. Consider `N#Cc1nc(COc2ccc(Cl)cc2Cl)oc1N1CCN(c2ccccc2)CC1`, for which the activation was 76%.

Turning to `CCOc1ccc(-c2nnc(-c3cccnc3)o2)cc1OCC`, the activation turned out to be 84.6%. Turning to `Cc1nc2ccc3nc(NC(=O)C4COc5ccccc5O4)sc3c2s1` (stereo not given), the activation was 58.9%. As to `CCNc1nc2c(c(=O)n(C)c(=O)n2C)n1Cc1ccc(Cl)cc1`, the activation is 65.2%.

In the case of `CCOc1ccc(-c2nc(-c3ccccc3)no2)cc1OCC`, the activation stood at 105%.

With `O=C(Nc1ccc(N2CCCC2)c(Cl)c1)c1ccc(Br)o1`, the activation was 85.2%.

`O=C(Nc1nc2c(s1)CCCC2)c1cc2n(n1)C(C(F)(F)F)CC(C1CC1)N2` (stereo not given): the activation turned out to be 100%. Regarding `O=C1C2C3C=CC(CO)(O3)C2C(=O)N1c1ccccc1-c1ccccc1` (stereo not given), the activation stood at 85%.

Turning to `CCOc1ccccc1OCCCCCc1c(C)n[nH]c1C`, the activation is 94.3%. For the compound `Fc1ccc(COc2ccc(/C=N/n3cnnc3)cc2)cc1`, the activation was 77.4%. As for `N#Cc1nc(-c2ccc(OCc3ccccc3)cc2)oc1NCc1cccnc1`, the figure is 109%; as for `Cc1ccnc(SCC(=O)Nc2sc3c(c2C#N)CCCC3)n1`, 113%. The figure for `C/C(N)=C(/C#N)C(=O)CSc1nnc(SCc2ccc(Cl)cc2)s1` is 64.7%. As to `O=C(Nc1c(F)cc(F)cc1Br)c1cc(-c2ccc(O)cc2)on1`, the activation stood at 107%. For `CCCN(C(=O)c1cccs1)c1nnc(-c2ccncc2)s1`, the activation came to 77.5%. On to `Cc1cc(C(=O)CSc2nnc(-c3ccco3)o2)c(C)n1-c1ccc2c(c1)OCCO2`, for which the activation was determined as 66.1%.

Take `CCCOC(=O)c1ccc(OCC(O)Cn2c(C)nc3ccccc32)cc1` (stereo not given): the activation turned out to be 56.6%. Take `Cc1ccccc1OCCCCc1c(C)n[nH]c1C`: the activation is 103%.

With `CCOC(=O)c1c(C)[nH]c(C(=O)C(C)OC(=O)c2cccc(OCc3c(C)noc3C)c2)c1C` (stereo not given), the activation worked out at 104%. Take `O=S(=O)(C/C(=C/CO)S(=O)(=O)c1ccccc1)c1ccccc1`: the activation came to 106%. With `Cc1oc2cc(O)cc(O)c2c(=O)c1-c1ccc2c(c1)OCCCO2`, the activation came out at 86.6%. As to `CC(=O)c1c(C)[nH]c(C(=O)OCCCCN2C(=O)c3ccccc3C2=O)c1C`, the activation came out at 96.9%. Take `Clc1ccc(-c2nc3nc4ccccc4nc3n2Cc2ccco2)cc1`: the activation came to 72.3%. On to `CCOC(=O)c1sc2nc(NC(=O)C3CCCCC3)sc2c1C`, for which the activation worked out at 72.3%. For the compound `Cc1ccc2c(c1)[nH]c1c(N3CCN(Cc4ccccc4)CC3)ncnc12`, the activation turned out to be 108%. For `COc1ccc(-c2nc(-c3cccc(C(F)(F)F)c3)no2)cc1OC`, the activation came out at 89.2%. For the compound `O=C(Nc1ccc(OC(F)F)c(Cl)c1)Nc1ccc2c(c1)OCO2`, the activation came to 83.3%. The figure for `COc1ccc(CCNc2ncnc3c2oc2ccccc23)cc1OC` is 119%; for `COC(=O)c1cc(CSc2nnc(-c3ccccc3)c(-c3ccccc3)n2)oc1C` it is 97%. Turning to `NC(=O)c1ccc(OCC(F)(F)C(F)(F)C(F)(F)C(F)(F)C(F)(F)C(F)F)cc1`, the activation was determined as 72.1%. Regarding `COc1ccc(-c2nc(-c3ccc(NC(=O)c4ccncc4)cc3)no2)cc1OC`, the activation is 113%. Turning to `CCCc1cc(C(=O)Nc2sc(C)c(CC)c2C#N)no1`, the activation is 65.4%.

Consider `COc1ccc(-c2nc3cc(NC(=O)Cc4ccc(OC)c(OC)c4)ccc3o2)cc1`, for which the activation is 89.6%. Regarding `COc1ccc(-c2cc(C(=O)NC3CCCC3)no2)cc1OC`, the activation came out at 70.3%.

Turning to `CC(Oc1ccccc1Br)C(=O)N1CCc2ccccc21` (stereo not given), the activation was 63.4%. As for `O=C(CSc1ncnc2c1oc1ccccc12)N1CCCc2ccccc21`, the figure is 100%; as for `CCCn1c(NC(=O)c2cccc(S(=O)(=O)N3CCCC3)c2)nc2ccccc21`, 96.7%. With `CCCC(=O)N1CCN(c2ccc(NC(=O)c3cc4ccccc4o3)cc2Cl)CC1`, the activation was 75.7%.

Regarding `COC(=O)c1ccc2c(=O)n(C3CCCCC3)c(SCC#N)nc2c1`, the activation was determined as 96.8%. `O=S(=O)(NCc1ccncc1)c1ccc(Br)s1`: the activation came out at 106%. In the case of `CC1=CC(C)(C)Nc2ccc(OC(=O)c3cccnc3)cc21`, the activation came out at 62.2%. As to `O=C(Nc1ccc(N2CCOCC2)c(Cl)c1)c1cccc(F)c1`, the activation was 92.6%.

For `Cn1nc(C(C)(C)C)cc1C(=O)NCc1ccc(N2CCCC2=O)cc1`, the activation came to 90.1%. `COCCn1c(C)cc(C(=O)CSc2nc3ccccc3o2)c1C`: the activation was 57.3%.

As to `CC(=O)Nc1ccccc1OCC(=O)c1cc(C)n(Cc2cccs2)c1C`, the activation came to 115%.

`Nc1ccc(N2CCOCC2)c(Cl)c1`: the activation is 92.1%.

Turning to `CN(C)c1oc(-c2ccc(OCc3ccccc3)cc2)nc1C#N`, the activation came to 82.8%. `O=C(Nc1ccc(Oc2ccccc2)cc1)c1cnc2n(c1=O)CCS2`: the activation came out at 63.5%.

As for `COc1cccc(-c2cc(C(=O)Nc3ccccc3SC)no2)c1`, the activation came to 87.1%. In the case of `CCC(C)c1ccc2oc(-c3ccc(NC(=O)Cn4cnc5c(=O)n(C)c(=O)n(C)c54)cc3)nc2c1` (stereo not given), the activation turned out to be 114%.

On to `c1ccc2c(c1)CCN(c1ncnc3c1[nH]c1ccccc13)C2`, for which the activation worked out at 116%. Consider `CC(=O)c1ccc(N2CCN(c3ccc(C(F)(F)F)cn3)CC2)cc1`, for which the activation was 58.5%.

With `Cc1occc1C(=O)N1CCN(c2ccc(Cl)c(Cl)c2)CC1`, the activation is 81.4%. Take `CCCC(=O)Nc1ccc(-c2nc3cc(C)ccc3o2)cc1`: the activation came to 54.8%.

On to `Cc1cccc(-c2nc(CSCC(=O)N3CCN(Cc4ccc5c(c4)OCO5)CC3)c(C)o2)c1`, for which the activation is 62.4%. With `Nc1nonc1C(=O)NCCNCc1cc(Br)ccc1OCc1ccc(F)cc1`, the activation turned out to be 109%. The figure for `CCOC(=O)N1CCC(NC(=O)C2CCCN(Cc3nc(-c4cccc(Cl)c4)oc3C)C2)CC1` (stereo not given) is 69%.

`c1ccc2c(c1)oc1c(NCc3ccc4c(c3)OCO4)ncnc12`: the activation was 79.2%. For the compound `O=C(Nc1ccc(O)cc1)c1cc2n(n1)C(C(F)(F)F)CC(c1ccco1)N2` (stereo not given), the activation came to 82.7%. With `c1ccc(N2CCN(Cc3ccnc4ccccc34)CC2)cc1`, the activation is 96.3%. Regarding `CC(C)COC(=O)NCCOC(=O)Nc1cccc(Cl)c1`, the activation is 76.6%. `c1ccc(CSc2nnc(-c3c[nH]c4ccccc34)o2)cc1`: the activation was found to be 99.4%. `CCn1c(SCC(=O)Nc2nc3ccc(C)cc3s2)nc2c(c1=O)SC(C)C2` (stereo not given): the activation came out at 68.7%.

Values taken from PubChem BioAssay AID449 (The Scripps Research Institute Molecular Screening Center, 2006).
